Converted amounts (≈) assume the structure as drawn.
Assays:
Escherichia coli = assay: Antibacterial activity against Escherichia coli ATCC 25922 after 24 hrs by broth dilution method; format: functional; settings: ATCC 25922, 24 h
Staphylococcus aureus = assay: Antibacterial activity against Staphylococcus aureus ATCC 6538p after 24 hrs by broth dilution method; format: functional

## CC1(C)S[C@@H]2[C@H](NC(=O)[C@H](N)c3ccccc3)C(=O)N2[C@H]1C(=O)O [AMPICILLIN]
Escherichia coli
  MIC: 3.12 µg/mL (≈ 8.93 µM)
Staphylococcus aureus
  MIC: 0.78 µg/mL (≈ 2.23 µM)

— ChEMBL document CHEMBL1759859, “Sargachromanols as inhibitors of Na+/K+ ATPase and isocitrate lyase” (Bioorg Med Chem Lett, 2011)
